Assay results: patent US20100061996A1
Results are given in words; binding and its absence hold for the method and conditions named. Some results given as binding are weak or reduced against the parent protein; the word gives no strength.

Chains of the proteins cited; added tags and fusions are not shown. Residues count along the entry.
UniProt P05981, residues 45-417: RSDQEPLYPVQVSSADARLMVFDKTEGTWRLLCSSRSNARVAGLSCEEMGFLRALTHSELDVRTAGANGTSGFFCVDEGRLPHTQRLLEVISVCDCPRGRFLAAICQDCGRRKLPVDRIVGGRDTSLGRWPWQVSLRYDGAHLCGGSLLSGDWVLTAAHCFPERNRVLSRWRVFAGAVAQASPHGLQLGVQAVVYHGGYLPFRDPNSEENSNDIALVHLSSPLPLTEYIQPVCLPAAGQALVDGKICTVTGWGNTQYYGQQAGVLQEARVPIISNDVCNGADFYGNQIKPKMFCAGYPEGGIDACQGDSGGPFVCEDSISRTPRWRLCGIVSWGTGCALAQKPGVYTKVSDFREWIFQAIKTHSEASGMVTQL
UniProt P00747, residues 97-810: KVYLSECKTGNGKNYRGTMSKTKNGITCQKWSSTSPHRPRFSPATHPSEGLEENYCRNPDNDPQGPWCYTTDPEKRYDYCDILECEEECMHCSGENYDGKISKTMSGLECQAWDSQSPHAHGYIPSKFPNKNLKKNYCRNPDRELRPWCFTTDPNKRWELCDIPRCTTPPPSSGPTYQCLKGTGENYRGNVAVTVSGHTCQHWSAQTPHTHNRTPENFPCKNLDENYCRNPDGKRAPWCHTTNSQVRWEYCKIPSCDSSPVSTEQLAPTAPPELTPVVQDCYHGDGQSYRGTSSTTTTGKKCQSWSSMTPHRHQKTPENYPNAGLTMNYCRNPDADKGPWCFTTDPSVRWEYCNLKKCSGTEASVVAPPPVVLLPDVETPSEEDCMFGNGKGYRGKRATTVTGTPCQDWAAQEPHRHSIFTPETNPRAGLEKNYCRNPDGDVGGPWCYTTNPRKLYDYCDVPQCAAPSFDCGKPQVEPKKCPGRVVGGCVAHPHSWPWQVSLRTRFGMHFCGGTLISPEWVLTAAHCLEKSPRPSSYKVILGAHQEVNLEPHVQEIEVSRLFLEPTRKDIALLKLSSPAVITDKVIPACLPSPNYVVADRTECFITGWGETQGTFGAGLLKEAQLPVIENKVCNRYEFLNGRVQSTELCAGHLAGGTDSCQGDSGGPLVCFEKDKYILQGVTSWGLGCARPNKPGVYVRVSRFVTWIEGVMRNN

How the values were obtained:
[1] = molecular target: T1, matriptase protease domain (UniProt Q9Y5Y6); assay: enzyme inhibition
T1 sequence (looked up): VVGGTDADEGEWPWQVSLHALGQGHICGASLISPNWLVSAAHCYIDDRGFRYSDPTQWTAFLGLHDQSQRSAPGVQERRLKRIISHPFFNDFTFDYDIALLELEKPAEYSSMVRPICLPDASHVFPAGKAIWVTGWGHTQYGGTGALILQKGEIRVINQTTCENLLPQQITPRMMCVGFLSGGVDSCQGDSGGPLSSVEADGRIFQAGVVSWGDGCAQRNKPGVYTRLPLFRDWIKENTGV

[2] = molecular target: soluble His-tagged hepsin comprising the entire extracellular domain of human hepsin (Arg45-Leu417) (human) (UniProt P05981); assay: enzyme inhibition
[3] = molecular target: T2, HGFA (hepatocyte growth factor activator) (UniProt Q04756); assay: enzyme inhibition (data not shown)
T2 sequence (looked up): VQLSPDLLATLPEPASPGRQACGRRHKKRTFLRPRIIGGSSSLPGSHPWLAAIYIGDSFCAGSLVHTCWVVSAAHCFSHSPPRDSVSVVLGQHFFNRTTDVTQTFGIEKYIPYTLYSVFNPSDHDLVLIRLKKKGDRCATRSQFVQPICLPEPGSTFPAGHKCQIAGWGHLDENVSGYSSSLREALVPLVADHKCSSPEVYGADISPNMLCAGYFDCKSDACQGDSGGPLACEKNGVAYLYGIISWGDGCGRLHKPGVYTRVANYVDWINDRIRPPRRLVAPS

Lys-plasmin = Lys-plasmin (UniProt P00747); assay: enzyme inhibition (data not shown)
[4] = molecular target: T1, matriptase protease domain; assay: enzyme inhibition, 400 nM HAI-2 used to stop pro-uPA cleavage
[5] = molecular target: soluble His-tagged hepsin comprising the entire extracellular domain of human hepsin (Arg45-Leu417) (human) (UniProt P05981); assay: as above

- binding [1]: binds
- binding [2]: binds
- binding [3]: binds
- binding (Lys-plasmin): binds
- binding [4]: binds
- binding [5]: binds
B1: soluble HAI-2 (hepatocyte growth factor activator inhibitor-2) (protein, UniProt O43291 28-197, looked up)
chain: ADRERSIHDFCLVSKVVGRCRASMPRWWYNVTDGSCQLFVYGGCDGNSNNYLTKEECLKKCATVTENATGDLATSRNAADSSVPSAPRRQDSEDHSSDMFNYEEYCTANAVTGPCRASFPRWYFDVERNSCNNFIYGGCRGNKNSYRSEEACMLRCFRQQENPPLPLGSK
